Test results taken from publication PMC4481117.
Results are given in words; binding and its absence hold for the method and conditions named.

Chains of the proteins cited; added tags and fusions are not shown. Lines headed by an entry give the natural chain unless they say otherwise; changes in a name come on top.
UniProt P20701: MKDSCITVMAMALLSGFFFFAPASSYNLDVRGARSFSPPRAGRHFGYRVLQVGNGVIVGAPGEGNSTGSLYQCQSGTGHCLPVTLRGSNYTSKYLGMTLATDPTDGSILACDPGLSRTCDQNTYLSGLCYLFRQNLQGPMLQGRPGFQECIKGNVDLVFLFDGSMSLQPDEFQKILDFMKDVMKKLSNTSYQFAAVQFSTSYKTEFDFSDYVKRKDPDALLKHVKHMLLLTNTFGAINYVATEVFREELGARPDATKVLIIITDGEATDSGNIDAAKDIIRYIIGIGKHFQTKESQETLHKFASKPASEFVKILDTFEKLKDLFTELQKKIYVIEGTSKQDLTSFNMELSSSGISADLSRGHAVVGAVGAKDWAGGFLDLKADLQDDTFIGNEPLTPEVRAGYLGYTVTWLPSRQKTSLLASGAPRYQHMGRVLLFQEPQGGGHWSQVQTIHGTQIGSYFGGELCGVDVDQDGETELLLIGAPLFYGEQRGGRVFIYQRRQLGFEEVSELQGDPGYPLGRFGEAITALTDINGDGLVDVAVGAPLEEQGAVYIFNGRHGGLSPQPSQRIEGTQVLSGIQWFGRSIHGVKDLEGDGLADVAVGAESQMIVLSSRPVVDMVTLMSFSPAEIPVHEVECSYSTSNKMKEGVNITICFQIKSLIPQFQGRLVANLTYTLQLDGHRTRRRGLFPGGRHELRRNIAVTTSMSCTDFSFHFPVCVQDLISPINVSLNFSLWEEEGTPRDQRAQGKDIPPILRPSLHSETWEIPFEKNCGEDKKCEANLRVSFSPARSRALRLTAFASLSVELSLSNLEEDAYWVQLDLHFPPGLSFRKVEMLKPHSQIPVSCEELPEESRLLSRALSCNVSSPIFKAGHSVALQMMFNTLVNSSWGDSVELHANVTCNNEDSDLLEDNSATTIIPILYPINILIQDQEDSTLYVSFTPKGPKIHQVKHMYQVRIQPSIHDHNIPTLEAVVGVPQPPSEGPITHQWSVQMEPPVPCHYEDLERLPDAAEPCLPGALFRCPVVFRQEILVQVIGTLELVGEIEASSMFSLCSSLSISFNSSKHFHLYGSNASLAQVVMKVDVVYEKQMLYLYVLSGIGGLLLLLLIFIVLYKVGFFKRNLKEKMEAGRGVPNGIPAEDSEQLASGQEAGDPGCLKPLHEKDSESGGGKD

Target: T1, dynorphin B
T1 sequence (peptide): YGGFLRRQFKVVT
Assay: cell adhesion assay; peptides coated on microtiter wells (3 h, 37 °C), post-coated with 1 % PVP; calcein-labeled HEK293 transfectants, 5x10^4 cells per well, 30 min at 37 °C; concentrations are coating concentrations; only the target purified

binding: no binding (tested: 10 μM (coating))
Substance: integrin LFA-1 (αLβ2, CD11a/CD18) on HEK293 cells (from UniProt P20701 26-1170; P05107 23-769) (receptor)
